{"source": "PubChem BioAssay AID686943 (Drosophila RNAi Screening Center, 2013)", "test": "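Knockdowns that increase or decrease active ERK after insulin receptor stimulation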 (primary screen)", "cells": "Drosophila S2R+ haemocyte-like cells expressing YFP-tagged ERK (Rolled)", "knock-down reagent": "long dsRNA against Drosophila genes", "challenge": "insulin stimulation versus unstimulated cells; dose and duration not given", "measurement": "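Antibody staining for doubly phosphorylated ERK divided by ERK-YFP signal, as plate z-scores, in insulin-treated and untreated cells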", "scale": "replicate 1, z-score of dpERK with insulin and replicate 2, z-score of dpERK with insulin: higher = more active ERK per ERK-YFP after insulin", "note": "In all, the deposit lists about 23,000 reagents; shown is a random part of those with a known target gene and a result. 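Extra replicates exist only for a retested subset of genes; insulin dose and duration not given; both raised and lowered dpERK matter.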 A plus sign joins genes that one reagent is predicted to hit. Further read-outs or replicates are left out here. Reagent sequences are not shown. Not given: the amount of reagent, the time to read-out."}
{"gene knocked down": "CG7988 (GeneID 42180)", "dsRNA": "DRSC16358", "replicate 1, z-score of dpERK with insulin": 0.36, "replicate 2, z-score of dpERK with insulin": 0.12}
{"gene knocked down": "shop (GeneID 32878)", "dsRNA": "DRSC20030", "replicate 1, z-score of dpERK with insulin": 0.19, "replicate 2, z-score of dpERK with insulin": -0.35}
{"gene knocked down": "CG14984 (GeneID 38467)", "dsRNA": "DRSC08442", "replicate 1, z-score of dpERK with insulin": 0.96, "replicate 2, z-score of dpERK with insulin": 0.77}
{"gene knocked down": "Lcp9 (GeneID 37963)", "dsRNA": "DRSC04287", "replicate 1, z-score of dpERK with insulin": -1.85, "replicate 2, z-score of dpERK with insulin": -1.45}
{"gene knocked down": "Cdk7 (GeneID 31441)", "dsRNA": "DRSC18451", "replicate 1, z-score of dpERK with insulin": 0.98, "replicate 2, z-score of dpERK with insulin": 0.66}
{"gene knocked down": "Uqcc1 + CG9948", "dsRNA": "DRSC09690", "replicate 1, z-score of dpERK with insulin": -0.4, "replicate 2, z-score of dpERK with insulin": -0.97}
{"gene knocked down": "bmm (GeneID 39611)", "dsRNA": "DRSC10502", "replicate 1, z-score of dpERK with insulin": 0.14, "replicate 2, z-score of dpERK with insulin": 0.71}
{"gene knocked down": "CG30447 (GeneID 246621)", "dsRNA": "DRSC05820", "replicate 1, z-score of dpERK with insulin": 0.05, "replicate 2, z-score of dpERK with insulin": 0.45}
{"gene knocked down": "SelR (GeneID 41309)", "dsRNA": "DRSC16071", "replicate 1, z-score of dpERK with insulin": -0.49, "replicate 2, z-score of dpERK with insulin": 0.02}
{"gene knocked down": "dom (GeneID 45655)", "dsRNA": "DRSC04558", "replicate 1, z-score of dpERK with insulin": -3.07, "replicate 2, z-score of dpERK with insulin": -3.73}
{"gene knocked down": "dom (GeneID 45655)", "dsRNA": "DRSC04559", "replicate 1, z-score of dpERK with insulin": -0.51, "replicate 2, z-score of dpERK with insulin": -0.16}

The list goes on (3 carried over from the part before).
{"gene knocked down": "SelR (GeneID 41309)", "dsRNA": "DRSC16071", "replicate 1, z-score of dpERK with insulin": -0.49, "replicate 2, z-score of dpERK with insulin": 0.02}
{"gene knocked down": "dom (GeneID 45655)", "dsRNA": "DRSC04558", "replicate 1, z-score of dpERK with insulin": -3.07, "replicate 2, z-score of dpERK with insulin": -3.73}
{"gene knocked down": "dom (GeneID 45655)", "dsRNA": "DRSC04559", "replicate 1, z-score of dpERK with insulin": -0.51, "replicate 2, z-score of dpERK with insulin": -0.16}
{"gene knocked down": "ND-B15 (GeneID 36640)", "dsRNA": "DRSC06199", "replicate 1, z-score of dpERK with insulin": 0.07, "replicate 2, z-score of dpERK with insulin": 0.02}
{"gene knocked down": "Sec3 (GeneID 39940)", "dsRNA": "DRSC10384", "replicate 1, z-score of dpERK with insulin": -0.02, "replicate 2, z-score of dpERK with insulin": 0.57}
{"gene knocked down": "rols (GeneID 39368)", "dsRNA": "DRSC09873", "replicate 1, z-score of dpERK with insulin": -0.73, "replicate 2, z-score of dpERK with insulin": -1.59}
{"gene knocked down": "rols (GeneID 39368)", "dsRNA": "DRSC10254", "replicate 1, z-score of dpERK with insulin": -0.09, "replicate 2, z-score of dpERK with insulin": -0.63}
{"gene knocked down": "rols (GeneID 39368)", "dsRNA": "DRSC10536", "replicate 1, z-score of dpERK with insulin": 0.85, "replicate 2, z-score of dpERK with insulin": 0.48}
{"gene knocked down": "Dnaaf5 (GeneID 318680)", "dsRNA": "DRSC13032", "replicate 1, z-score of dpERK with insulin": 0.73, "replicate 2, z-score of dpERK with insulin": 0.64}
{"gene knocked down": "nsl1 (GeneID 41911)", "dsRNA": "DRSC15625", "replicate 1, z-score of dpERK with insulin": 3.4, "replicate 2, z-score of dpERK with insulin": -0.56}
{"gene knocked down": "kappaB-Ras + CG30503", "dsRNA": "DRSC06619", "replicate 1, z-score of dpERK with insulin": 0.98, "replicate 2, z-score of dpERK with insulin": 0.69}
{"gene knocked down": "kappaB-Ras + CG30503", "dsRNA": "DRSC07636", "replicate 1, z-score of dpERK with insulin": 1.16, "replicate 2, z-score of dpERK with insulin": 0.78}
{"gene knocked down": "Mal-A8 (GeneID 35830)", "dsRNA": "DRSC07234", "replicate 1, z-score of dpERK with insulin": -1.03, "replicate 2, z-score of dpERK with insulin": -0.36}
